Results as given in PMC7819943, “Rice protein-binding microarrays: a tool to detect cis-acting elements near promoter regions in rice”.
This is one part of the list.

Protein sequences, listed by entry. Tags and fused reporters are not part of them.
UniProt Q0JBA9, entry or part of it: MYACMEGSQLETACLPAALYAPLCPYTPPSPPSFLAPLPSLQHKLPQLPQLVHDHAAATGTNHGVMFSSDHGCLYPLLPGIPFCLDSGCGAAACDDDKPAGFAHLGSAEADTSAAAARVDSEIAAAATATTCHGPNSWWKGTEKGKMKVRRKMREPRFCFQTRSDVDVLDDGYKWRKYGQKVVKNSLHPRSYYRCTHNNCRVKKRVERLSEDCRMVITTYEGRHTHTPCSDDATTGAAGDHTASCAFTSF

Molecular target: OsWRKY34 (Oryza sativa, UniProt Q0JBA9 1-250)
Assay: protein-binding microarray (RPBM); PBS, 2% BSA, 51.3 ng/ul salmon testes DNA, 50 uM zinc acetate, 200 nM TF, 25 C, 1 h; high values mean tight binding
Details: protein: recombinant; tags: N-terminal polyhistidine and DsRed monomer fusion (pET32a); label: CyDye5-dUTP incorporated in the synthesized complementary strand; 3' TTTTT single-stranded linker to array surface; dsDNA, one strand shown
Procedure, shortened: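 Ni–NTA purification followed expression in E. coli BL21-CodonPlus of transcription factors fused N-terminally to a polyhistidine tag and DsRed. At 200 nM in PBS with 2% BSA, salmon testes DNA and 50 µM zinc acetate, the protein was incubated for 1 h at 25 °C with a custom Agilent array that had been primer-extended with Cy5-dUTP and blocked with 2% BSA. After washing, the array was read on an Axon 4000B scanner. The binding signal is per-feature fluorescence intensity in arbitrary units.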

In order of rising binding signal:
1. GTCCGACCGCATTACTATCCGCCATGATCGGAGCCAAGCCCGGAGTCACCTAGTGCAG  8040 fluorescence intensity (a.u.)
2. GTTATTCTTGCATGCCAAGTCCTTTTCCAGGGATTGCAGACGGAGTCACCTAGTGCAG  8150 fluorescence intensity (a.u.)
3. TCGTCGTTGGTTTCTTGCCGCCTTGACCCCAACCACCAGCCGGAGTCACCTAGTGCAG  8170 fluorescence intensity (a.u.)
4. GCTGCTTCTTCGCTTCAATTCTGTGTTGGTAGCAGGCGACCGGAGTCACCTAGTGCAG  8180 fluorescence intensity (a.u.)
5. GGCCTATTTAGTTTGGTGTCATTTTAAATCATACCACTATCGGAGTCACCTAGTGCAG  8180 fluorescence intensity (a.u.)
6. CCCATTTAACTTCACAACACATCTCATTGTTTGTTACCAACGGAGTCACCTAGTGCAG  8270 fluorescence intensity (a.u.)
7. TCTTCATATCTTTTGGCTGAAACCAAGCCAACTACTATACCGGAGTCACCTAGTGCAG  8280 fluorescence intensity (a.u.)
8. TATAAGCGTTCATTCACACTCTCTTTCTAGCTCATTGCTTCGGAGTCACCTAGTGCAG  8340 fluorescence intensity (a.u.)
9. TAATTATTTATAGCTCTATGGTCCACATTGTCCTTTGTGTCGGAGTCACCTAGTGCAG  8340 fluorescence intensity (a.u.)
10. GTGTTGTGGCGGCGGATTGGATCAGTGGCCGCTGTCGCGCCGGAGTCACCTAGTGCAG  8360 fluorescence intensity (a.u.)
11. GTATTATTACATAGGTACCATTTGGTCTCCGGTCCTCATCCGGAGTCACCTAGTGCAG  8410 fluorescence intensity (a.u.)
12. CTTTTTCTCATTATTTTCCAATGCATGCATCGATCAACAACGGAGTCACCTAGTGCAG  8440 fluorescence intensity (a.u.)
13. GAGAGAAGCTCTCTCTCACTCACTCGCTCGCCACACACCACGGAGTCACCTAGTGCAG  8440 fluorescence intensity (a.u.)
14. TTCTTTGTTTTCACGGTATCATTTCACAAGGGCTTGTCCTCGGAGTCACCTAGTGCAG  8470 fluorescence intensity (a.u.)
15. TCCCATCCCATCGATCGATCGATCTCATGCGGCAGCTTTACGGAGTCACCTAGTGCAG  8510 fluorescence intensity (a.u.)
16. TCTCTCTCTCTCTCTCTCTCTCTCTCGAATTCGCGAACACCGGAGTCACCTAGTGCAG  8540 fluorescence intensity (a.u.)
17. GAGTTTTTTTGTTTTGTTCTTTTGCTTTGGTTAGATAAAGCGGAGTCACCTAGTGCAG  8550 fluorescence intensity (a.u.)
18. AGTTTCCAACCCAATTGGCCACTTACCATGCTATTATATACGGAGTCACCTAGTGCAG  8560 fluorescence intensity (a.u.)
19. CTTTTTTGCAAAAAGTCAGGCCGCCATCAACACCATCTCGCGGAGTCACCTAGTGCAG  8590 fluorescence intensity (a.u.)
20. CAATGCTGGACTTATCGGGTAACGCGCTTACCGGCACTCTCGGAGTCACCTAGTGCAG  8640 fluorescence intensity (a.u.)
21. CCGGACTCCTCTCACCTGCTGCTTTCTTCTCATAAAGAACCGGAGTCACCTAGTGCAG  8660 fluorescence intensity (a.u.)
22. TATTGATCTCCAATTCTTTTCTCACTTCTACTTGTTTTAACGGAGTCACCTAGTGCAG  8660 fluorescence intensity (a.u.)
23. CACCATCCTTCCCCGGTGCTTGCCCATGTACCTCCTCTCACGGAGTCACCTAGTGCAG  8680 fluorescence intensity (a.u.)
24. TCCACTGTTGCCGCTGGGGCCAATCCCTCCTTGGACTCCGCGGAGTCACCTAGTGCAG  8750 fluorescence intensity (a.u.)
25. CCATTACTACTGCGTGCCCTTGGATGGCTATTTTTCTCGACGGAGTCACCTAGTGCAG  8760 fluorescence intensity (a.u.)
26. AATACCAACTTTGCAGTTTATTTCTGCAGTATTTTACTATCGGAGTCACCTAGTGCAG  8770 fluorescence intensity (a.u.)
27. TTATCTAGATTCGTATTACTAGGATGTGTCTCGTTCAACCCGGAGTCACCTAGTGCAG  8780 fluorescence intensity (a.u.)
28. CTCCAGCTTGTCCAGCGCCGCCTTCCGCTGCTCGTCCTCCCGGAGTCACCTAGTGCAG  8790 fluorescence intensity (a.u.)
29. GCCTGGCTCATCGGTTACCCTTTCTCACCGACTGTACTACCGGAGTCACCTAGTGCAG  8790 fluorescence intensity (a.u.)
30. AAAGTTAAAACACTCTTATTCTCTTGTTGTTGTGTTCCTTCGGAGTCACCTAGTGCAG  8790 fluorescence intensity (a.u.)
31. TATGGCTTGAATTGCTTCTTATTTGGTGCTGGAATGGTTACGGAGTCACCTAGTGCAG  8810 fluorescence intensity (a.u.)
32. TTCTCTCTCTCTCTTTTTTTTTCTTCCTTTCTTTTTGGATCGGAGTCACCTAGTGCAG  8820 fluorescence intensity (a.u.)
33. CTCGCCTTTTGTTGACTTGGCAAACGACCCTGATCTCAAACGGAGTCACCTAGTGCAG  8850 fluorescence intensity (a.u.)
34. GGTGTGTTTGGCAAATGAGTTATGAGAGGTGTGATTGTTACGGAGTCACCTAGTGCAG  8860 fluorescence intensity (a.u.)
35. ATGTCAACTCTCTTCACTTCAATGATCGTTTAGCTCTATCCGGAGTCACCTAGTGCAG  8940 fluorescence intensity (a.u.)
36. ACACTATTGAGCGCTTACCATGGGCATTTCGCGTATGATTCGGAGTCACCTAGTGCAG  8980 fluorescence intensity (a.u.)
37. TATCCTTTTGTTTTGTTTTAAGACTTCTCGTGTAATCTCGCGGAGTCACCTAGTGCAG  9000 fluorescence intensity (a.u.)
38. GGGGTTCGCGTTCGCGTCGCTCTCGTCTCGTCTCGTCATGCGGAGTCACCTAGTGCAG  9010 fluorescence intensity (a.u.)
39. TCGAGTTATCACTATCAACTTTCGGCGCTGCCTGTTTACACGGAGTCACCTAGTGCAG  9070 fluorescence intensity (a.u.)
40. GCCGTTCGCCACCACGCCTACTTCGCCGGCTGCCCTCGCCCGGAGTCACCTAGTGCAG  9290 fluorescence intensity (a.u.)
41. AGCCGCACATCCCCGCCTCTTCCCGCCGCCGTCCGCCGCGCGGAGTCACCTAGTGCAG  9290 fluorescence intensity (a.u.)
42. CTCTACTACTCTAATCCTCCATCAGTCACCATTGTATCTACGGAGTCACCTAGTGCAG  9300 fluorescence intensity (a.u.)
43. CAGTTGTCTTCTATGATTTGTGTCTTCAATTAGCATCTACCGGAGTCACCTAGTGCAG  9350 fluorescence intensity (a.u.)
44. TACTACTCTCCTTTCTTTACGTGGTAGCTGGGCTGGGCTGCGGAGTCACCTAGTGCAG  9360 fluorescence intensity (a.u.)
45. GGACCTACCCCTATATATAGCACTCATGTTTGAGAGTAAACGGAGTCACCTAGTGCAG  9390 fluorescence intensity (a.u.)
46. CCGCATCCTGCCGCACTACCGTCTCCCGCCCGCCGCGAAGCGGAGTCACCTAGTGCAG  9390 fluorescence intensity (a.u.)
47. AGAGGGATGGGTGTTTGATTGGAGTGGGTTGGGAGCCATGCGGAGTCACCTAGTGCAG  9390 fluorescence intensity (a.u.)
48. TAGATTACACATGCCCAACACGTCCCATCACTAATCTGATCGGAGTCACCTAGTGCAG  9420 fluorescence intensity (a.u.)
49. ATTCGGTCATTTCGCCGCCACCACCGCCGCCGCCGTCGTGCGGAGTCACCTAGTGCAG  9500 fluorescence intensity (a.u.)
50. ACTTTTATTCTGGGGTGGAGGTAGTACAAACTTTTTTATACGGAGTCACCTAGTGCAG  9530 fluorescence intensity (a.u.)
51. TGGGCTCTCTCTCTCTCTCTCTCTCTCGCCTCTCTATCTACGGAGTCACCTAGTGCAG  9550 fluorescence intensity (a.u.)
52. CGCCTGCCGCGCCGCCCTCCACCAGGTCCTCTCGCGCCACCGGAGTCACCTAGTGCAG  9660 fluorescence intensity (a.u.)
53. TATATTATCTTGATTTTCTGATCCCGACATCTAGCCATTACGGAGTCACCTAGTGCAG  9680 fluorescence intensity (a.u.)
54. CATCGTCATCTTTGTTGTCATCGGGTGTGGCAGTGAACATCGGAGTCACCTAGTGCAG  9720 fluorescence intensity (a.u.)
55. TCGATTTCCTCTTGTCTTATATCGCTCTCTTTTTCTCGGTCGGAGTCACCTAGTGCAG  9800 fluorescence intensity (a.u.)
56. ACCATTCTTCACTTGACTCGTCTTCATCCATCCGACGCCGCGGAGTCACCTAGTGCAG  9890 fluorescence intensity (a.u.)
57. TAGATGGCAGTTTCTTTCCTTGGGACCTACGCTAATGCCTCGGAGTCACCTAGTGCAG  9960 fluorescence intensity (a.u.)
58. CGATGGGGTATTGTGTGCGTATGGGATGCGGAGTCGAATTCGGAGTCACCTAGTGCAG  10000 fluorescence intensity (a.u.)
59. CGAGGTATTTCAGTCCAATGCAGCAAAGATTCGTTTTTTCCGGAGTCACCTAGTGCAG  10100 fluorescence intensity (a.u.)
60. GGGTCTCAAGTTTAGCAGTCAATATGGCATTTTTCTATTTCGGAGTCACCTAGTGCAG  10100 fluorescence intensity (a.u.)
61. TGTTGGCATCTATTATCCCACATCGACGTAACCATTTTTACGGAGTCACCTAGTGCAG  10800 fluorescence intensity (a.u.)
62. CCACTTCTCTCTCTACAATCCAAACTCACTCTCTCCCTCTCGGAGTCACCTAGTGCAG  11000 fluorescence intensity (a.u.)
63. GGCTGAGAAACCACCACTGTCTCCATCGTCGGTCAGCCCGCGGAGTCACCTAGTGCAG  11000 fluorescence intensity (a.u.)
64. GGCGTTGGTCACCTCCCGTGAGTCGTCCTCTATTCCTCTTCGGAGTCACCTAGTGCAG  11100 fluorescence intensity (a.u.)
65. GTCCACAGTTTCTCTCTCTTCTCTTCTCTTCTCTCTCTCACGGAGTCACCTAGTGCAG  11300 fluorescence intensity (a.u.)
66. TATTTTGTTAATGTCGCGTGTTGTTTGAGTGTTCTTGAAGCGGAGTCACCTAGTGCAG  11300 fluorescence intensity (a.u.)
67. CCTCTCTCCGGCCGCCTATAAATTCGGCGCCAATGTGCACCGGAGTCACCTAGTGCAG  11300 fluorescence intensity (a.u.)
68. ATTAATAGCATTTTGGTTATTCTCACGCTTCACTATTTTTCGGAGTCACCTAGTGCAG  11300 fluorescence intensity (a.u.)
69. TCACCCGGCCCATCTGCAACCCGTCGAGTCCAACCCGCCGCGGAGTCACCTAGTGCAG  11500 fluorescence intensity (a.u.)
70. CTATTTTCTTTTTCTTTCTTTCTTTCTTTTTCTTTGTATACGGAGTCACCTAGTGCAG  12100 fluorescence intensity (a.u.)
71. TTTGCACTATTCACATCCAACGTTTAACTATTCGTCTTATCGGAGTCACCTAGTGCAG  12200 fluorescence intensity (a.u.)
72. TCGTTCTTCCTTTCTTCTTAAGACATCTCATGCATGACCTCGGAGTCACCTAGTGCAG  12600 fluorescence intensity (a.u.)
73. ATCCTCTGTTTTTCCTGCTACTATGTTTTCTCGATCTTTCCGGAGTCACCTAGTGCAG  12900 fluorescence intensity (a.u.)
74. TACTTCTTAGCTACTTCTATTGCCCATTGTCATTCTCTTTCGGAGTCACCTAGTGCAG  13000 fluorescence intensity (a.u.)
75. AATAGATGACGTTGTTGACTTTTTCTCATATGTTTGACCACGGAGTCACCTAGTGCAG  13000 fluorescence intensity (a.u.)
76. TAAAACGAATGGTCAAACGTTGGTCGAAAAGTCAACGGCGCGGAGTCACCTAGTGCAG  14400 fluorescence intensity (a.u.)
77. AATGGTCAAACATGTGAGAAAAAGTCAACGATGTCATCTACGGAGTCACCTAGTGCAG  14700 fluorescence intensity (a.u.)
78. TGTTGACTTTTTAAAACATGTTTGACCGTTCATATTATTCCGGAGTCACCTAGTGCAG  15700 fluorescence intensity (a.u.)
79. TGGTTTGGTTACTGGTTTAGTGCTTGAATTAATGTGGCACCGGAGTCACCTAGTGCAG  18400 fluorescence intensity (a.u.)
80. GGCGGGGCGGCGGAGGTGGTGGTGGGGAGGGCGAGAGATGCGGAGTCACCTAGTGCAG  23400 fluorescence intensity (a.u.)
81. GTGTATTCTACTTAGTAATTTACTTGGCTTGAATTTTTTTCGGAGTCACCTAGTGCAG  28900 fluorescence intensity (a.u.)
82. CGTTGACTTTTTCTTACATGTTTGACCATTCGTCTTATTTCGGAGTCACCTAGTGCAG  35300 fluorescence intensity (a.u.)
83. TGACGCCGTTGACTTTTTTAAACATGTTTGATCGTTCGTCCGGAGTCACCTAGTGCAG  35900 fluorescence intensity (a.u.)
84. CTGCCGGCTGCTCAATTTATTCCCTTGCTGTTTCATTTCGCGGAGTCACCTAGTGCAG  45500 fluorescence intensity (a.u.)
